The results in this text go back to PubChem BioAssay.

Several values for one entry are separate records, joined by “and”; a condition that tells them apart may be missing. Equal entries are not always repeated. This is one part of the list. Measured potencies and affinities stand elsewhere. Entries without a call are filed as inconclusive in the source.

The nature of test [1]: Drosophila SCA1 whole organism dose response for polyglutamine toxicity reduction (AID 1595). Conditions: Drosophila SCA1 polyglutamine model, at 1 µM, stronger effect = higher value.
A short description of another test: PubChem AID 1597. Conditions: Drosophila SCA1 polyglutamine model, at 1 µM, stronger effect = higher value.

As for `N[C@@H](Cc1c[nH]c2ccccc12)C(=O)O`, the suppression of toxicity (in test [1]; in “PubChem AID 1597”) was 5.71 each time.

For `CCOC(=O)C(C)(C)Oc1ccc(Cl)cc1`, the suppression of toxicity in test [1] is 17.1 and 0; in “PubChem AID 1597” it was 12.9 and 0.

On to `Cc1c(NC(=O)c2cccnc2)c(=O)n(-c2ccccc2)n1C`, for which the suppression of toxicity in test [1] was found to be 0; in the test “PubChem AID 1597” it was 3.58.

Turning to `O=C(O)CN(CCN(CC(=O)O)CC(=O)O)CC(=O)O`, the suppression of toxicity in test [1] was 4.29; in “PubChem AID 1597”, 5.71.

Take `COc1c2occc2c(OC)c2c(=O)cc(C)oc12`: the suppression of toxicity came to 0 in test [1] and 3.57 in the test “PubChem AID 1597”.

Regarding `CC(=O)Nc1ccccc1`, the suppression of toxicity in test [1] is 1.43 and 0; in the test “PubChem AID 1597”, 2.86 and 12.1.

As for `COc1ccccc1OCC(O)CO` (configuration not stated), the suppression of toxicity came out at 4.29 in test [1] and 7.14 in the test “PubChem AID 1597”.

As for `O=C(CCCN1CCC(O)(c2ccc(Cl)cc2)CC1)c1ccc(F)cc1`, the suppression of toxicity is 8.57 in test [1] and 13.6 in “PubChem AID 1597”.

In the case of `CO[C@@]1(NC(=O)C(C(=O)O)c2ccc(O)cc2)C(=O)N2C(C(=O)O)=C(CSc3nnnn3C)CO[C@@H]21` (some centres not stated), the suppression of toxicity worked out at 0 in test [1] and 0.715 in the test “PubChem AID 1597”.

Take `CC[C@]12CCCN3CCc4c(n(c5ccccc45)[C@](O)(C(=O)OC)C1)[C@@H]32`: the suppression of toxicity in test [1] worked out at 5.71; in the test “PubChem AID 1597”, 4.29.

In the case of `CN1CCc2cccc3c2C1Cc1ccc(O)c(O)c1-3` (configuration not stated), the suppression of toxicity in test [1] was found to be 2.86; in “PubChem AID 1597”, 5.71.

Turning to `CCN(CC)CCNC(=O)c1cc(S(C)(=O)=O)ccc1OC`, the values for the suppression of toxicity (in test [1]; in the test “PubChem AID 1597”) were 15.7 and 11.4, respectively.

As to `CN(C)CC/C=C1\c2ccccc2Sc2ccc(Cl)cc21`, the suppression of toxicity in test [1] turned out to be 0; in the test “PubChem AID 1597”, 0.715.

`CCc1cc(C(N)=S)ccn1`: the results for the suppression of toxicity (in test [1]; in the test “PubChem AID 1597”) were 1.43 and 5, respectively.

Take `CC(Cc1ccc(O)c(O)c1)(NN)C(=O)O` (configuration not stated): the results for the suppression of toxicity (in test [1]; in “PubChem AID 1597”) were 0 and 2.86, respectively.

With `CN(C)[C@@H]1C(=O)C(C(N)=O)=C(O)[C@@]2(O)C(=O)C3=C(O)c4c(O)ccc(Cl)c4[C@@H](O)[C@H]3C[C@@H]12`, the results for the suppression of toxicity (in test [1]; in “PubChem AID 1597”) were 0 and 1.43, respectively.

On to `CC1=C(CC(=O)O)c2cc(F)ccc2/C1=C\c1ccc(S(C)=O)cc1` (configuration not stated), for which the suppression of toxicity in test [1] amounted to 7.14; in the test “PubChem AID 1597”, 2.15.

Take `CNC[C@H](O)c1cccc(O)c1`: the suppression of toxicity in test [1] was 2.86; in “PubChem AID 1597” it was 11.4.

Take `CC[C@@H](CO)NCCN[C@@H](CC)CO`: the suppression of toxicity in test [1] was determined as 18.6; in “PubChem AID 1597”, 0.715.

Consider `Oc1c(Cl)cc(Cl)c(Cl)c1Cc1c(O)c(Cl)cc(Cl)c1Cl`, for which the suppression of toxicity was found to be 0 in test [1] and 3.57 in the test “PubChem AID 1597”.

As for `CCN(CCCCOC(=O)c1ccc(OC)c(OC)c1)C(C)Cc1ccc(OC)cc1` (configuration not stated), the suppression of toxicity (in test [1]; in the test “PubChem AID 1597”) was 4.29 throughout.

`N#Cc1ccc2c(c1)N(CCCN1CCC(O)CC1)c1ccccc1S2`: the suppression of toxicity (in test [1]; in “PubChem AID 1597”) was 1.43 throughout.

In the case of `CCCN1C[C@H](CSC)C[C@@H]2c3cccc4[nH]cc(c34)C[C@H]21`, the suppression of toxicity in test [1] stood at 0; in “PubChem AID 1597”, 2.85.

As to `C=C[C@H]1CN2CC[C@H]1C[C@@H]2[C@@H](O)c1ccnc2ccc(OC)cc12`, the values for the suppression of toxicity (in test [1]; in “PubChem AID 1597”) were 0 and 2.86, respectively.

For the molecule `Nc1nc2ncc(CNc3ccc(C(=O)N[C@@H](CCC(=O)O)C(=O)O)cc3)nc2c(=O)[nH]1`, the suppression of toxicity in test [1] came to 0; in the test “PubChem AID 1597”, 5.71.

With `C1CCC(C(CC2CCCCN2)C2CCCCC2)CC1` (configuration not stated), the suppression of toxicity in test [1] was found to be 0; in “PubChem AID 1597”, 3.58.

For `Cc1cc(O)cc(C)c1Cl`, the suppression of toxicity is 7.14 in test [1] and 5 in “PubChem AID 1597”.

For `CC1(C)C2CC[C@]3(C)C(C(=O)C=C4[C@@H]5C[C@@](C)(C(=O)O)CC[C@]5(C)CC[C@]43C)[C@@]2(C)CC[C@@H]1O` (some centres not stated), the suppression of toxicity (in test [1]; in “PubChem AID 1597”) was 0 in each case.

`CC1(C)C2CC[C@]3(C)C(C(=O)C=C4[C@H]5C[C@@](C)(C(=O)O)CC[C@]5(C)CC[C@]43C)[C@@]2(C)CC[C@@H]1O` (some centres not stated): the values for the suppression of toxicity (in test [1]; in the test “PubChem AID 1597”) were 7.14 and 9.29, respectively.

In the case of `NC(N)=NC(N)=Nc1ccccc1`, the suppression of toxicity in test [1] stood at 1.43; in “PubChem AID 1597”, 0.715.

Turning to `C[N+]1(C)CCCC(OC(=O)C(O)(c2ccccc2)c2ccccc2)C1` (configuration not stated), the suppression of toxicity in test [1] was 0; in the test “PubChem AID 1597” it was 3.58.

Turning to `COC(=O)/C(=C1\OC(=O)C(c2ccccc2)C1=O)c1ccccc1` (configuration not stated), the suppression of toxicity came out at 0 in test [1] and 0.715 in “PubChem AID 1597”.

As for `COc1ccc(-c2cc(=O)c3c(O)cc(O)cc3o2)cc1`, the suppression of toxicity is 1.43 in test [1] and 0.715 in “PubChem AID 1597”.

For the molecule `O=C(O)c1ccccc1OP(=O)(O)O`, the figures for the suppression of toxicity (in test [1]; in the test “PubChem AID 1597”) were 0 and 2.15, respectively.

As to `CCCCNc1cc(C(=O)O)cc(S(N)(=O)=O)c1Oc1ccccc1`, the suppression of toxicity was 8.57 in test [1] and 12.9 in “PubChem AID 1597”.

As to `O=c1cc(CO)occ1O`, the suppression of toxicity (in test [1]; in “PubChem AID 1597”) was 11.4 in each case.
